Data as given in PubChem BioAssay AID504804 (Drosophila RNAi Screening Center, 2011).
The screen tested about 19,000 reagents; this is a random part of those with a known target gene and a result. Over the whole deposit, 47 (0.25%) were called active. 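Signals are raw, not normalised; exact z-scores behind calls not deposited; actives needed confirmation, so some wells reaching 2 SD are inactive.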 The numbers tell different reagents against one gene apart. Names joined by + are all predicted targets of the reagent.

Test: 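dsRNAs that improve Kc cell survival under doxorubicin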 (primary screen)
Cell system: Drosophila Kc cells
Reagent: long dsRNA against Drosophila genes, 0.5 µg dsRNA per well
Time to read-out: 96 h (48 h knock-down, then 48 h drug)
Conditions: doxorubicin 5 µg/ml for 48 h, added 48 h after dsRNA
Read-out: 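Luminescent ATP counts per replicate, not normalised, reflecting viable cells after 48 h dsRNA knock-down followed by 48 h of 5 µg/ml doxorubicin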
Reading the numbers: raw ATP luminescence: higher = more viable cells, protection from doxorubicin
Active means: 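Active when both duplicate wells lie at least 2 SD above the plate mean and protection is confirmed by rescreening and independent dsRNAs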

no.	target gene	reagent	raw ATP luminescence, replicate 1	raw ATP luminescence, replicate 2	activity call
1	CG34026	1	1.88e5	1.98e5	inactive
2	CG11360	1	2.30e5	2.25e5	inactive
3	CG11360	2	56850	52410	inactive
4	CG44014	1	80460	75080	inactive
5	Ir25a	1	30243	33703	inactive
6	upd1	1	3.50e5	3.57e5	inactive
7	Anp	1	31370	37230	inactive
8	wdp	1	73570	70093	inactive
9	Gr77a	1	29897	56797	inactive
10	CG17141	1	61140	60630	inactive
11	CG14070	1	48873	87080	inactive
12	E(spl)m2-BFM	1	21020	21800	inactive
13	CtsL2	1	47553	46640	inactive
14	Atu	1	61653	29340	inactive
15	Abi	1	49383	30330	inactive
16	Dtwd2	1	76063	58927	inactive
17	CG42812 + CG42811	1	82210	85310	inactive
18	CG42812 + CG42811	2	67330	59480	inactive
19	ms(3)K81	1	39710	41130	inactive
20	alpha-Cat	1	23543	25763	inactive
21	mAChR-C	1	38840	41760	inactive
22	mtsh	1	53437	68523	inactive
23	CG8677 + CG31626	1	95463	67467	inactive
24	CG15483	1	57883	62790	inactive
25	CG6650	1	25660	23137	inactive
26	Taf4	1	16713	19567	inactive
27	SelR	1	52790	54407	inactive
28	Tmx3	1	34233	34300	inactive

As entered above.
Ir25a, activity call: inactive
Entry of CG11360 #2 in “raw ATP luminescence, replicate 1”: 56850
For “raw ATP luminescence, replicate 2”, Dtwd2 has 58927
CG14070, raw ATP luminescence, replicate 1: 48873
mtsh, raw ATP luminescence, replicate 1: 53437

The listing continues.
no.	target gene	reagent	raw ATP luminescence, replicate 1	raw ATP luminescence, replicate 2	activity call
29	msl-2	1	1.22e5	64817	inactive
30	Adsl	1	58253	43713	inactive
31	ATP7	1	3.41e5	3.24e5	inactive
32	CG15641	1	3.52e5	3.16e5	inactive
33	trus	1	52773	44763	inactive
34	CG14085	1	73677	74287	inactive
35	SamDC	1	91403	60687	inactive
36	IKKbeta	1	39197	48290	inactive
37	NAAT1	1	42100	46920	inactive
38	cerv	1	3.67e5	3.09e5	inactive
39	CG1943	1	60633	55977	inactive
40	CG30393	1	56227	50750	inactive
41	Cadps	1	3.80e5	3.44e5	inactive
42	maca	1	73830	62590	inactive
43	nahoda	1	71353	58823	inactive
44	nahoda	2	74077	88933	inactive
45	Root	1	92230	76420	inactive
46	CG15449	1	2.81e5	3.06e5	inactive
47	jus	1	13310	18030	inactive
48	jus	2	28930	47780	inactive
49	ImpE2	1	33953	26887	inactive
50	CG15097	1	64890	50173	inactive
51	CG7632	1	49600	46750	inactive
52	sls	1	54000	57293	inactive
53	Inx6	1	2.49e5	2.95e5	inactive
54	CG31446	1	2.46e5	2.63e5	inactive
55	Cdc16	1	64060	69120	inactive
56	heix	1	1.06e5	54883	inactive
57	CG6015	1	34497	43617	inactive
